# Source: the supplement of paper PMC8728848
# The list shows a part of the results.
# B1: PX9961M-bvu-482-23-482 (Bacteroides vulgatus) (protein)
# chain: WLDLAPSTQVDTETSINVLSDIEFTLNGIYSTMQSSDAYSGRLVYYGDVTGDDMQAVSSTKRTGNYYRFNFTKDNGPSSHWSYLYSIIQNCNLILMNVDKLSIDEDETEYKNDLKGQALAIRGMALFDLTRIFGYPYLKDNGASLGVPIVKELSTIDSKPARNTVAECYTEIISDLKNSTELLSGDFNKGKVNRWAAMTLLSRVYLYKGEYNEALTMAENAIKGAEKEGYALWTNEEYPTAWGNDASASNPGEILFEIVNLTTDSPGKESMGYLNSYNGYDDMCITCSFYQLLKKDPKDVRLKILSFDKKYYAYVNKYQPQQGENITDANIPLIRLSEAYLNAAEAAVQTGDNAKAVKYLNSIVQRANPENSVEGKTLTLENVLDERRKELVAEGHRMYDVIRNGMTVKRIDVKDSDINKTKHNTAYMEYDWNFHKILLPIPKKEMDANPNMKQNPGYVD
# Tests used:
# Assay in all cases: glycan array binding signal (z-score within array); higher = stronger binding
# Details in all cases: glycan notation: IUPAC condensed, linker removed
# [1] = target: Fuc(a1-2)Gal6S(b1-3)GlcNAc6S
# Outline: (§1)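 The binding signal is a Z-score computed within each array and averaged over linkers. Arrays of the same protein sequence at different concentrations or buffers were also averaged together. Data originate from 3228 arrays in the Consortium for Functional Glycomics database, kept only where the protein sequence was available.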
# Fuc(a1-2)Gal6S(b1-4)Glc = target: Fuc(a1-2)Gal6S(b1-4)Glc
# Outline: as §1
# [2] = target: Fuc(a1-2)Gal6S(b1-4)Glc6S
# Outline: as §1
# Fuc(a1-2)[Gal(a1-3)]Gal = target: Fuc(a1-2)[Gal(a1-3)]Gal
# Outline: as §1
# [3] = target: Fuc(a1-2)[Gal(a1-3)]Gal(b1-3)GalNAc
# Outline: as §1
# [4] = target: Fuc(a1-2)[Gal(a1-3)]Gal(b1-3)GalNAc(b1-3)Gal(a1-4)Gal(b1-4)Glc
# Outline: as §1
# [5] = target: Fuc(a1-2)[Gal(a1-3)]Gal(b1-3)GlcNAc
# Outline: as §1
# [6] = target: Fuc(a1-2)[Gal(a1-3)]Gal(b1-3)GlcNAc(b1-2)Man(a1-3)[Fuc(a1-2)[Gal(a1-3)]Gal(b1-3)GlcNAc(b1-2)Man(a1-6)]Man(b1-4)GlcNAc(b1-4)GlcNAc
# Outline: as §1
# [7] = target: Fuc(a1-2)[Gal(a1-3)]Gal(b1-3)GlcNAc(b1-2)Man(a1-3)[Fuc(a1-2)[Gal(a1-3)]Gal(b1-3)GlcNAc(b1-2)Man(a1-6)]Man(b1-4)GlcNAc(b1-4)[Fuc(a1-6)]GlcNAc
# Outline: as §1
# [8] = target: Fuc(a1-2)[Gal(a1-3)]Gal(b1-3)GlcNAc(b1-3)GalNAc
# Outline: as §1
# [9] = target: Fuc(a1-2)[Gal(a1-3)]Gal(b1-3)GlcNAc(b1-6)GalNAc
# Outline: as §1
# [10] = target: Fuc(a1-2)[Gal(a1-3)]Gal(b1-4)Glc
# Outline: as §1
# [11] = target: Fuc(a1-2)[Gal(a1-3)]Gal(b1-4)GlcNAc
# Outline: as §1
# [12] = target: Fuc(a1-2)[Gal(a1-3)]Gal(b1-4)GlcNAc(b1-2)Man
# Outline: as §1
# [13] = target: Fuc(a1-2)[Gal(a1-3)]Gal(b1-4)GlcNAc(b1-2)Man(a1-3)[Fuc(a1-2)[Gal(a1-3)]Gal(b1-4)GlcNAc(b1-2)Man(a1-6)]Man(b1-4)GlcNAc(b1-4)GlcNAc
# Outline: as §1
# [14] = target: Fuc(a1-2)[Gal(a1-3)]Gal(b1-4)GlcNAc(b1-2)Man(a1-3)[Fuc(a1-2)[Gal(a1-3)]Gal(b1-4)GlcNAc(b1-2)Man(a1-6)]Man(b1-4)GlcNAc(b1-4)[Fuc(a1-6)]GlcNAc
# Outline: as §1
# [15] = target: Fuc(a1-2)[Gal(a1-3)]Gal(b1-4)GlcNAc(b1-3)GalNAc
# Outline: as §1
# [16] = target: Fuc(a1-2)[Gal(a1-3)]Gal(b1-4)GlcNAc(b1-3)[Fuc(a1-2)[Gal(a1-3)]Gal(b1-4)GlcNAc(b1-6)]GalNAc
# Outline: as §1
# [17] = target: Fuc(a1-2)[Gal(a1-3)]Gal(b1-4)GlcNAc(b1-6)GalNAc
# Outline: as §1
# [18] = target: Fuc(a1-2)[Gal(a1-3)]Gal(b1-4)[Fuc(a1-3)]Glc
# Outline: as §1
# [19] = target: Fuc(a1-2)[Gal(a1-3)]Gal(b1-4)[Fuc(a1-3)]GlcNAc
# Outline: as §1
# [20] = target: Fuc(a1-2)[Gal(a1-3)]Gal(b1-4)[Fuc(a1-3)]GlcNAc(b1-3)GalNAc
# Outline: as §1
# [21] = target: Fuc(a1-2)[Gal(a1-4)]Gal(b1-4)GlcNAc
# Outline: as §1
# [22] = target: Fuc(a1-2)[GalNAc(a1-3)]Gal
# Outline: as §1
# [23] = target: Fuc(a1-2)[GalNAc(a1-3)]Gal(b1-3)GalNAc(a1-3)[Fuc(a1-2)]Gal(b1-4)GlcNAc
# Outline: as §1
# [24] = target: Fuc(a1-2)[GalNAc(a1-3)]Gal(b1-3)GalNAc(b1-3)Gal(a1-4)Gal(b1-4)Glc
# Outline: as §1
# [25] = target: Fuc(a1-2)[GalNAc(a1-3)]Gal(b1-3)GlcNAc
# Outline: as §1
# [26] = target: Fuc(a1-2)[GalNAc(a1-3)]Gal(b1-3)GlcNAc(b1-2)Man(a1-3)[Fuc(a1-2)[GalNAc(a1-3)]Gal(b1-3)GlcNAc(b1-2)Man(a1-6)]Man(b1-4)GlcNAc(b1-4)GlcNAc
# Outline: as §1
# [27] = target: Fuc(a1-2)[GalNAc(a1-3)]Gal(b1-3)GlcNAc(b1-2)Man(a1-3)[Fuc(a1-2)[GalNAc(a1-3)]Gal(b1-3)GlcNAc(b1-2)Man(a1-6)]Man(b1-4)GlcNAc(b1-4)[Fuc(a1-6)]GlcNAc
# Outline: as §1
# [28] = target: Fuc(a1-2)[GalNAc(a1-3)]Gal(b1-3)GlcNAc(b1-3)GalNAc
# Outline: as §1
# [29] = target: Fuc(a1-2)[GalNAc(a1-3)]Gal(b1-3)GlcNAc(b1-6)GalNAc
# Outline: as §1
# [30] = target: Fuc(a1-2)[GalNAc(a1-3)]Gal(b1-4)Glc
# Outline: as §1
# [31] = target: Fuc(a1-2)[GalNAc(a1-3)]Gal(b1-4)GlcNAc
# Outline: as §1
# [32] = target: Fuc(a1-2)[GalNAc(a1-3)]Gal(b1-4)GlcNAc(b1-2)Man
# Outline: as §1
# [33] = target: Fuc(a1-2)[GalNAc(a1-3)]Gal(b1-4)GlcNAc(b1-2)Man(a1-3)[Fuc(a1-2)[GalNAc(a1-3)]Gal(b1-4)GlcNAc(b1-2)Man(a1-6)]Man(b1-4)GlcNAc(b1-4)GlcNAc
# Outline: as §1
# [34] = target: Fuc(a1-2)[GalNAc(a1-3)]Gal(b1-4)GlcNAc(b1-2)Man(a1-3)[Fuc(a1-2)[GalNAc(a1-3)]Gal(b1-4)GlcNAc(b1-2)Man(a1-6)]Man(b1-4)GlcNAc(b1-4)[Fuc(a1-6)]GlcNAc
# Outline: as §1
# [35] = target: Fuc(a1-2)[GalNAc(a1-3)]Gal(b1-4)GlcNAc(b1-3)Gal(b1-4)GlcNAc
# Outline: as §1
# [36] = target: Fuc(a1-2)[GalNAc(a1-3)]Gal(b1-4)GlcNAc(b1-3)Gal(b1-4)GlcNAc(b1-3)Gal(b1-4)GlcNAc
# Outline: as §1
# [37] = target: Fuc(a1-2)[GalNAc(a1-3)]Gal(b1-4)GlcNAc(b1-3)GalNAc
# Outline: as §1
# [38] = target: Fuc(a1-2)[GalNAc(a1-3)]Gal(b1-4)GlcNAc(b1-3)[Fuc(a1-2)[GalNAc(a1-3)]Gal(b1-4)GlcNAc(b1-6)]GalNAc
# Outline: as §1
# [39] = target: Fuc(a1-2)[GalNAc(a1-3)]Gal(b1-4)GlcNAc(b1-6)GalNAc
# Outline: as §1
# [40] = target: Fuc(a1-2)[GalNAc(a1-3)]Gal(b1-4)[Fuc(a1-3)]GlcNAc
# Outline: as §1
# [41] = target: Fuc(a1-2)[GalNAc(a1-3)]Gal(b1-4)[Fuc(a1-3)]GlcNAc(b1-3)GalNAc
# Outline: as §1
# [42] = target: Fuc(a1-2)[GalNAc(a1-4)]Gal(b1-4)GlcNAc
# Outline: as §1
# [43] = target: Fuc(a1-2)[GalNAc(b1-3)]Gal
# Outline: as §1
binder,measurement,setting,value
B1,glycan array binding signal (z-score),[1],1.29
same,glycan array binding signal (z-score),Fuc(a1-2)Gal6S(b1-4)Glc,-0.841
same,glycan array binding signal (z-score),[2],0.138
same,glycan array binding signal (z-score),Fuc(a1-2)[Gal(a1-3)]Gal,0.516
same,glycan array binding signal (z-score),[3],0.222
same,glycan array binding signal (z-score),[4],-0.376
same,glycan array binding signal (z-score),[5],-0.45
same,glycan array binding signal (z-score),[6],0.126
same,glycan array binding signal (z-score),[7],-0.251
same,glycan array binding signal (z-score),[8],-1.05
same,glycan array binding signal (z-score),[9],0.159
same,glycan array binding signal (z-score),[10],0.247
same,glycan array binding signal (z-score),[11],-0.597
same,glycan array binding signal (z-score),[12],-0.129
same,glycan array binding signal (z-score),[13],1.68
same,glycan array binding signal (z-score),[14],0.208
same,glycan array binding signal (z-score),[15],-0.714
same,glycan array binding signal (z-score),[16],-0.008
same,glycan array binding signal (z-score),[17],0.341
same,glycan array binding signal (z-score),[18],-0.572
same,glycan array binding signal (z-score),[19],-0.364
same,glycan array binding signal (z-score),[20],1.17
same,glycan array binding signal (z-score),[21],0.547
same,glycan array binding signal (z-score),[22],-0.004
same,glycan array binding signal (z-score),[23],-0.77
same,glycan array binding signal (z-score),[24],0.188
same,glycan array binding signal (z-score),[25],-0.348
same,glycan array binding signal (z-score),[26],-0.044
same,glycan array binding signal (z-score),[27],-0.35
same,glycan array binding signal (z-score),[28],-0.308
same,glycan array binding signal (z-score),[29],-0.49
same,glycan array binding signal (z-score),[30],-0.742
same,glycan array binding signal (z-score),[31],-0.616
same,glycan array binding signal (z-score),[32],-0.735
same,glycan array binding signal (z-score),[33],0.898
same,glycan array binding signal (z-score),[34],-0.034
same,glycan array binding signal (z-score),[35],-0.419
same,glycan array binding signal (z-score),[36],0.797
same,glycan array binding signal (z-score),[37],-0.231
same,glycan array binding signal (z-score),[38],0.213
same,glycan array binding signal (z-score),[39],-0.373
same,glycan array binding signal (z-score),[40],0.826
same,glycan array binding signal (z-score),[41],-0.446
same,glycan array binding signal (z-score),[42],-0.779
same,glycan array binding signal (z-score),[43],0.245

# Reformatted with bars between the fields: part of the list above.
binder | measurement | setting | value
B1 | glycan array binding signal (z-score) | [15] | -0.714
same | glycan array binding signal (z-score) | [38] | 0.213
same | glycan array binding signal (z-score) | [43] | 0.245
